One may read the AC50 as the concentration giving half of the maximal activity seen. Higher therefore signals weaker potency.

For 58 compounds, cell number change and AC50 results are on record in PubChem BioAssay AID2685 (National Center for Advancing Translational Sciences (NCATS), 2010).

The other results are listed elsewhere or left out. Shown are side measurements of this screen, not its main read-out; they come without a call. Compounds called inactive in the main read-out are mostly missing here. Words in brackets tell the shape of the fitted curve; partial curves, single points and poor fits give uncertain potencies.

The assay in a line: qHTS Assay for Lipid Storage Modulators in Drosophila S3 Cells.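 On cell number change: cells counted by Cell Tracker Red CMTPX staining in the red channel.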 The following applies: BODIPY lipid droplet fluorescence, 18-24 h; for cell number change: measured here: cell count max response, cells fed with added oleic acid. An outline of the steps:
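Drosophila S3 cells loaded with oleic acid (400 uM, as added) and compounds at several concentrations; lipid droplets imaged by 488-nm laser-scanning cytometry, 500–530 nm intensity and object ratio to cell channel. Percent activity normalized to 20 uM Triacsin C.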
(In general: In qHTS, concentration-response curves come from the screen itself.)

[1] abbreviates: measured here: cell number channel AC50, cells fed with added oleic acid.
Where [2] appears, read: measured here: lipid fluorescence (Fed channel) AC50, cells fed with added oleic acid.

For `CC(C)c1nnc(NC(=O)CCC(=O)NCc2cccs2)s1`, the cell number change was determined as 4.8%.

On to `COc1cc(C(=O)NCC(c2cccs2)N2CCc3ccccc32)cc(OC)c1OC` (stereo not drawn), for which the cell number change was -11.8%. For the same compound, the AC50 under setting [1] is 4.11 µM [rising, single point].

On to `COc1ccc(S(=O)(=O)N/N=C\c2ccccc2F)cc1`, for which the cell number change is -4.95%. Besides, the AC50 under setting [2] is 29.1 µM [rising, single point].

`CNc1sc(C(=O)c2ccc(F)cc2)c(N)c1-c1nc2ccccc2s1`: the cell number change is -49.2%. Further, the AC50 under setting [1] is 18.4 µM [falling, single point]. Under setting [2], the AC50 was 16.4 µM [falling, partial curve].

As for `COc1cccc2c1OC1(CCN(C(C)C)CC1)N1N=C(c3cccnc3)CC21` (stereo not drawn), the cell number change was 22.2%. Moreover, under setting [2], the AC50 was 0.651 µM [rising, single point].

For the compound `CNc1snc(C)c1C(=O)OCC(=O)c1cc(F)ccc1OC`, the cell number change stood at 12.3%.

Turning to `COc1ccccc1NC(=O)COC(=O)C1C2CC3OC(=O)C1C3C2` (stereo not drawn), the cell number change was -1.9%.

As for `COc1ccccc1OCCNC(=O)c1cc(SC)ccc1Cl`, the cell number change was found to be 6.74%. Moreover, the AC50 under setting [2] is 18.4 µM [rising, partial curve].

Consider `Cc1ccc(CNc2nc(C)nc3sc4c(c23)CCC4)cc1`, for which the cell number change is -17.9%. Under setting [2], the half-maximal activity concentration (AC50) is 23.1 µM [falling, single point].

As for `Cn1c(C(=O)N2CCC(C(N)=O)CC2)cc2cc(Cl)ccc21`, the cell number change came out at 5.03%. Under setting [2], the AC50 is 0.116 µM [rising, full curve].

In the case of `CC(=O)Nc1ccc(OCC(=O)N(CC(C)C)C2CCS(=O)(=O)C2)cc1` (stereo not drawn), the cell number change was -38.5%. The AC50 under setting [1] was 1.16 µM [falling, full curve, poor fit]. The concentration at half-maximal activity (AC50) under setting [2] is 1.3 µM [falling, full curve, poor fit].

In the case of `Cc1ccc(NCN2C(=O)C(=O)c3ccccc32)nc1`, the cell number change was -20.2%. The AC50 under setting [2] was 13 µM [falling, single point].

As to `COc1ccc(OC)c(C2SCCN2S(C)(=O)=O)c1` (stereo not drawn), the cell number change turned out to be 30.2%. Also, the AC50 under setting [1] was 20.6 µM [rising, single point].

For `Cc1cccnc1NC(=O)c1ccccc1-c1ccccc1C(=O)Nc1ncccc1C`, the cell number change is -11.8%. Moreover, under setting [1], the AC50 is 0.0731 µM [falling, full curve, poor fit]. Also, under setting [2], the AC50 was 6.51 µM [falling, single point].

On to `CC(C)CCN1CCN(Cc2ccoc2)CC1CCO` (stereo not drawn), for which the cell number change stood at 9.68%. Further, the AC50 under setting [2] is 23.1 µM [rising, single point].

In the case of `COc1ccc(C(=O)Nc2cc(C)ccc2NC(=O)COc2ccccc2)cc1`, the cell number change turned out to be 65.9%. The AC50 under setting [1] was 16.4 µM [rising, single point]. The AC50 under setting [2] was 14.6 µM [rising, partial curve].

Turning to `COc1ccc(Cl)cc1NC(=O)CN(c1ccccc1)S(=O)(=O)N(C)C`, the cell number change is 16.9%. The AC50 under setting [1] is 0.461 µM [rising, full curve, poor fit].

Take `Cc1ccc(CSC2=Nc3ccccc3C3=NC(CC(=O)NCc4ccco4)C(=O)N23)cc1` (stereo not drawn): the cell number change was -6.54%. Under setting [2], the concentration at half-maximal activity (AC50) was 18.4 µM [falling, single point].

On to `CCSc1ncc(/C=N/Nc2ccc(Cl)cc2)n1C`, for which the cell number change was -37%. Also, the half-maximal activity concentration (AC50) under setting [1] is 0.0184 µM [falling, partial curve, poor fit].

Consider `Cc1ccc(S(=O)(=O)NC(=O)Nc2ccc(F)c(F)c2)cc1`, for which the cell number change was determined as 2.94%.

Turning to `Cc1cccc(/C=N\Nc2cn[nH]c(=O)c2Cl)c1`, the cell number change is -38.2%. Moreover, the AC50 under setting [1] is 14.6 µM [falling, partial curve, poor fit].

As for `CN1CCN(CC(O)COc2ccc(S(=O)(=O)N3CCOCC3)cc2)CC1` (stereo not drawn), the cell number change was 3.51%. For the same compound, the AC50 under setting [1] was 0.326 µM [falling, full curve, poor fit].

As to `Cc1ccnc(SCCn2c(N3CCCCC3)nc3c2c(=O)[nH]c(=O)n3C)n1`, the cell number change was -8%. In addition, the concentration at half-maximal activity (AC50) under setting [1] is 0.731 µM [falling, single point]. Also, under setting [2], the half-maximal activity concentration (AC50) is 0.13 µM [rising, full curve, poor fit].

For `COc1ccc(C(=O)NCC(=O)OCC(=O)Nc2c(C)n(C)n(-c3ccccc3)c2=O)cc1`, the cell number change was -37.6%. Besides, the AC50 under setting [1] was 0.184 µM [falling, full curve]. For the same compound, the AC50 under setting [2] was 23.1 µM [falling, partial curve].

As for `CC1CCCCN1S(=O)(=O)c1ccc2c(c1)CCN2C(=O)C1CC1` (stereo not drawn), under setting [2], the AC50 is 18.4 µM [falling, partial curve].

Take `CCOc1cc(C(=O)OCC(=O)Nc2ccc(SC(F)F)cc2)cc(OCC)c1OCC`: the cell number change is 46.6%. For the same compound, the AC50 under setting [1] was 10.3 µM [rising, partial curve, poor fit]. Under setting [2], the AC50 was 29.1 µM [rising, single point].

Take `COc1cccc(/C=N/NC(=O)CSc2nnc(C)n2-c2ccccc2)c1O`: the cell number change was found to be 31.1%. The AC50 under setting [1] is 32.6 µM [rising, single point].

As for `COc1ccc(C(=O)NCCCNC(=O)c2cc3ccccc3[nH]2)cc1OC`, the cell number change stood at 24.6%. For the same compound, the AC50 under setting [2] is 4.61 µM [rising, full curve].

Regarding `NC(=O)C1CCN(C(=O)COc2ccc(S(=O)(=O)NCc3ccccc3)cc2Cl)CC1`, the cell number change came out at 8.19%. Further, the AC50 under setting [2] was 0.517 µM [rising, single point].

Take `Cc1ccccc1N=C(NO)c1cccnc1`: the cell number change came out at 4.26%. For the same compound, the AC50 under setting [1] was 0.366 µM [rising, full curve].

`CC(CCc1ccccc1)NC(=O)CN(C)Cc1ccc(F)cc1` (stereo not drawn): the cell number change was found to be 34.2%. Also, the AC50 under setting [1] was 5.17 µM [rising, full curve, poor fit].

Regarding `Cn1nnnc1SCC(=O)N1c2ccccc2Sc2ccccc21`, the cell number change amounted to 3.66%. Moreover, the AC50 under setting [2] is 0.103 µM [falling, full curve, poor fit].

`Cc1ccc(-c2csc(=Nc3cccnc3)n2CCCN2CCCC2=O)cc1C`: the cell number change came out at 12.6%. In addition, the AC50 under setting [1] is 4.61 µM [rising, partial curve, poor fit].

As for `Cc1cccc(N2CC(C(=O)NCc3ccco3)CC2=O)c1C` (stereo not drawn), the cell number change is 50%. In addition, under setting [1], the AC50 was 23.1 µM [rising, single point]. In addition, the AC50 under setting [2] was 11.6 µM [rising, partial curve].

As to `O=C(Nc1ccccc1N1CCN(C(=O)c2ccc(Cl)cc2)CC1)c1ccc(Br)cc1`, the AC50 under setting [2] was 2.06 µM [rising, partial curve].

Turning to `Cc1nc2ccccc2c(=O)n1CC(=O)N1CCOCC1`, the cell number change is -87.5%. Moreover, the AC50 under setting [1] is 29.1 µM [falling, single point]. Besides, the AC50 under setting [2] is 29.1 µM [falling, single point].

Regarding `O=C(Nc1ccc(Br)cc1F)c1cccnc1`, the cell number change turned out to be 14%. For the same compound, the AC50 under setting [2] was 29.1 µM [rising, single point].

In the case of `CC1(C(=O)Nc2c(F)c(F)c(F)c(F)c2F)CC1(Br)Br` (stereo not drawn), the cell number change was -2.99%. The AC50 under setting [1] was 0.259 µM [rising, full curve, poor fit].

In the case of `CCN(CC(=O)Nc1ccccc1C(F)(F)F)C(=O)Cc1cccs1`, the cell number change was determined as 6.65%. Also, the half-maximal activity concentration (AC50) under setting [1] was 6.51 µM [rising, single point]. Further, under setting [2], the AC50 was 6.51 µM [rising, single point].

As for `O=C(O)c1ccc(NC(CSCc2ccc(F)cc2)C(=O)O)c([N+](=O)[O-])c1` (stereo not drawn), the cell number change is -31.1%. The AC50 under setting [1] is 58 µM [falling, partial curve, poor fit]. In addition, the AC50 under setting [2] is 23.1 µM [falling, partial curve].

On to `CCOC(=O)NC(NCc1ccccc1Cl)(C(F)(F)F)C(F)(F)F`, for which the cell number change was determined as 32.4%. For the same compound, the AC50 under setting [1] is 29.1 µM [rising, single point].

Regarding `Clc1ccc(-c2nnc(-c3ccccc3)c(-c3c[nH]c4ccccc34)n2)cc1`, the cell number change worked out at 6.14%. In addition, the AC50 under setting [2] was 0.82 µM [rising, full curve, poor fit].

`CC(C)C(=O)N(c1ccc2oc(=O)sc2c1)S(=O)(=O)c1ccccc1`: the cell number change worked out at 2.63%.

`Cc1ccc2cc(C(c3nnnn3C(C)(C)C)N3CCCC3)c(=O)[nH]c2c1C` (stereo not drawn): the cell number change amounted to 111%. Under setting [1], the AC50 is 1.64 µM [rising, full curve]. For the same compound, the AC50 under setting [2] was 4.61 µM [rising, single point].

Regarding `CC(=O)c1cc2c(cc1NC(=O)c1ccc(C)cc1)OCCO2`, the cell number change was -1.4%.

Turning to `COc1ccc(C(=O)N/C(=C\c2ccc3c(c2)OCO3)C(=O)Nc2ccc(C(=O)O)cc2)cc1`, the cell number change is -44.5%. The AC50 under setting [1] is 4.61 µM [falling, full curve, poor fit].

With `COCCOc1cc(-n2ccnc2SC)c(Cl)cc1Cl`, the cell number change was -22.1%. Also, the AC50 under setting [2] was 20.6 µM [falling, partial curve, poor fit].

Regarding `O=C(NCCN1C(=O)S/C(=C\c2ccccc2Cl)C1=O)C1=COCCO1`, the AC50 by setting is: under setting [1], 5.17 µM [falling, partial curve]; under setting [2], 16.4 µM [falling, partial curve].

As for `O=C(Nc1ccccc1)C1CC=CCC1C(=O)OCC1CCCO1` (stereo not drawn), the cell number change is 25.1%. The AC50 under setting [2] was 0.13 µM [falling, full curve].

Take `COCCNC(=O)[C@@]1(C)C=C[C@@H](Cc2ccccc2)N1C(=O)c1ccccc1`: the cell number change came to 18.8%. Besides, under setting [2], the concentration at half-maximal activity (AC50) was 29.1 µM [falling, single point].

As for `COc1cc2c(cc1NC(=S)Nc1ccccc1C)oc1ccccc12`, the cell number change is 7.08%. Besides, the concentration at half-maximal activity (AC50) under setting [1] was 0.116 µM [rising, full curve, poor fit]. For the same compound, the AC50 under setting [2] was 0.731 µM [rising, partial curve].

As to `CS(=O)(=O)c1cccc(-c2nnc(NC(=O)CCS(=O)(=O)c3ccccc3)o2)c1`, the cell number change turned out to be 7.15%. For the same compound, the AC50 under setting [2] is 5.8 µM [falling, full curve, poor fit].

Consider `COc1ccc(OC(C)C(=O)NCCC2=CCCCC2)cc1` (stereo not drawn), for which the cell number change was -10.2%. The AC50 under setting [2] was 14.6 µM [falling, partial curve].

Consider `Cc1ccc(S(=O)(=O)Nc2ccc3nc(-c4cccn4C)[nH]c3c2)cc1`, for which the AC50 under setting [1] is 0.231 µM [rising, full curve] and the AC50 under setting [2] is 0.291 µM [rising, full curve].

Regarding `O=C(CSc1ccc2nnc(-c3ccccn3)n2n1)N1CCN(c2ccccc2)CC1`, the cell number change turned out to be 2.03%.

On to `COc1cccc(C2c3c(oc4cc(C)c(C)cc4c3=O)C(=O)N2CCCN(C)C)c1` (stereo not drawn), for which the cell number change came out at 16.1%.

In the case of `CC1CCN(S(=O)(=O)c2ccc3c(c2)N(CC(=O)NCCCN2CC(C)CC(C)C2)C(=O)CS3)CC1` (stereo not drawn), the AC50 under setting [2] is 29.1 µM [rising, single point].

Consider `COc1ccc(CN2C(=O)c3ccccc3C2=O)cc1C(=O)N(C)CC(=O)Nc1c(C)cccc1C`, for which the cell number change was -2.72%. For the same compound, under setting [2], the AC50 is 5.8 µM [falling, full curve, poor fit].
